The results in this text go back to PMC11120602.

Amino acid sequences for entries named in this document (tags omitted).
UniProt O14744: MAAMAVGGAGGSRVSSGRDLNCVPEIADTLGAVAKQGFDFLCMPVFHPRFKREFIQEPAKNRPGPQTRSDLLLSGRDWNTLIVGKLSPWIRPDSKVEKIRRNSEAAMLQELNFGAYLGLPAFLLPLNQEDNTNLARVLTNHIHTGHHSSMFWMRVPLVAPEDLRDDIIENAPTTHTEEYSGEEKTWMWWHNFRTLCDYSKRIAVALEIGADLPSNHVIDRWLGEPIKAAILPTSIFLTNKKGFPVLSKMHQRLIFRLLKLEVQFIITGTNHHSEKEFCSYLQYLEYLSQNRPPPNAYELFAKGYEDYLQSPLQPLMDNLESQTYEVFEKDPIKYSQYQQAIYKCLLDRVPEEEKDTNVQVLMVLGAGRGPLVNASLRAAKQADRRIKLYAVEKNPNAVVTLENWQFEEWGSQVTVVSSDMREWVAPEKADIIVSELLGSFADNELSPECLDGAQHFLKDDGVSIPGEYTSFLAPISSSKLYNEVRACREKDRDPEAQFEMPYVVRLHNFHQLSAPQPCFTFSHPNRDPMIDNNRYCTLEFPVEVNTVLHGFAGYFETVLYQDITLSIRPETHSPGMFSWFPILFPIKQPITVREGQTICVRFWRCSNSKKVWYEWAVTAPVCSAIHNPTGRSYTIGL

In test [1] the target is PRMT5-Flag (protein arginine N-methyltransferase 5) (human) (UniProt O14744). Description: co-IP; HEK293FT cells co-transfected with PRMT5-Flag and/or RORα-HA; hypotonic gentle lysis buffer (10 mM Tris-HCl pH 7.5, 2 mM EDTA, 0.5% Triton X-100), brought to 150 mM NaCl; anti-Flag M2 affinity gel; Western blot. (In western blotting, separated proteins are transferred to a membrane and probed.)

Test [2] concerns the target GST-PRMT5 fusion protein (human) (UniProt O14744). Description: pull-down; GST-PRMT5 on glutathione agarose beads incubated with RORα-expressing HEK293FT cell lysate at 4 °C for 4 h; washed three times with RIPA buffer; Western blot; only the target purified.

Results are given in words; binding and its absence hold for the method and conditions named. In cells and extracts the contact can be indirect. Some entries that bind do so weakly or less than the wild type. Tags and fused reporters may be left off the sequences shown.

B1: RORα-HA (retinoic acid receptor-related orphan receptor alpha, isoform RORα1) (protein, UniProt P35398-2 1-523)
chain: MESAPAAPDPAASEPGSSGADAAAGSRETPLNQESARKSEPPAPVRRQSYSSTSRGISVTKKTHTSQIEIIPCKICGDKSSGIHYGVITCEGCKGFFRRSQQSNATYSCPRQKNCLIDRTSRNRCQHCRLQKCLAVGMSRDAVKFGRMSKKQRDSLYAEVQKHRMQQQQRDHQQQPGEAEPLTPTYNISANGLTELHDDLSNYIDGHTPEGSKADSAVSSFYLDIQPSPDQSGLDINGIKPEPICDYTPASGFFPYCSFTNGETSPTVSMAELEHLAQNISKSHLETCQYLREELQQITWQTFLQEEIENYQNKQREVMWQLCAIKITEAIQYVVEFAKRIDGFMELCQNDQIVLLKAGSLEVVFIRMCRAFDSQNNTVYFDGKYASPDVFKSLGCEDFISFVFEFGKSLCSMHLTEDEIALFSAFVLMSADRSWLQEKVKIEKLQQKIQLALQHVLQKNHREDGILTKLICKVSTLRALCGRHTEKLMAFKAIYPDIVRLHFPPLYKELFTSEFEPAMQIDG
With B1, in test [1], the binding result is given as “binds”.

B2: RORα1-Flag (protein, UniProt P35398-2 1-523)
chain: MESAPAAPDPAASEPGSSGADAAAGSRETPLNQESARKSEPPAPVRRQSYSSTSRGISVTKKTHTSQIEIIPCKICGDKSSGIHYGVITCEGCKGFFRRSQQSNATYSCPRQKNCLIDRTSRNRCQHCRLQKCLAVGMSRDAVKFGRMSKKQRDSLYAEVQKHRMQQQQRDHQQQPGEAEPLTPTYNISANGLTELHDDLSNYIDGHTPEGSKADSAVSSFYLDIQPSPDQSGLDINGIKPEPICDYTPASGFFPYCSFTNGETSPTVSMAELEHLAQNISKSHLETCQYLREELQQITWQTFLQEEIENYQNKQREVMWQLCAIKITEAIQYVVEFAKRIDGFMELCQNDQIVLLKAGSLEVVFIRMCRAFDSQNNTVYFDGKYASPDVFKSLGCEDFISFVFEFGKSLCSMHLTEDEIALFSAFVLMSADRSWLQEKVKIEKLQQKIQLALQHVLQKNHREDGILTKLICKVSTLRALCGRHTEKLMAFKAIYPDIVRLHFPPLYKELFTSEFEPAMQIDG
Consider B2, for which the binding entry in test [2] is reported as “binds”.
